Measured values as given in PMC5717138.
These are yes or no findings as the source states them, for the method shown. In cells and extracts the contact can be indirect. A yes stands for co-enrichment or nearness to the bait. Other partners may have been found. Sequences can lack the tags named with a protein.

Molecular target: T1, 2xFlag-Polη (DNA polymerase η, wild type) (human) (UniProt Q9Y253)
T1 sequence: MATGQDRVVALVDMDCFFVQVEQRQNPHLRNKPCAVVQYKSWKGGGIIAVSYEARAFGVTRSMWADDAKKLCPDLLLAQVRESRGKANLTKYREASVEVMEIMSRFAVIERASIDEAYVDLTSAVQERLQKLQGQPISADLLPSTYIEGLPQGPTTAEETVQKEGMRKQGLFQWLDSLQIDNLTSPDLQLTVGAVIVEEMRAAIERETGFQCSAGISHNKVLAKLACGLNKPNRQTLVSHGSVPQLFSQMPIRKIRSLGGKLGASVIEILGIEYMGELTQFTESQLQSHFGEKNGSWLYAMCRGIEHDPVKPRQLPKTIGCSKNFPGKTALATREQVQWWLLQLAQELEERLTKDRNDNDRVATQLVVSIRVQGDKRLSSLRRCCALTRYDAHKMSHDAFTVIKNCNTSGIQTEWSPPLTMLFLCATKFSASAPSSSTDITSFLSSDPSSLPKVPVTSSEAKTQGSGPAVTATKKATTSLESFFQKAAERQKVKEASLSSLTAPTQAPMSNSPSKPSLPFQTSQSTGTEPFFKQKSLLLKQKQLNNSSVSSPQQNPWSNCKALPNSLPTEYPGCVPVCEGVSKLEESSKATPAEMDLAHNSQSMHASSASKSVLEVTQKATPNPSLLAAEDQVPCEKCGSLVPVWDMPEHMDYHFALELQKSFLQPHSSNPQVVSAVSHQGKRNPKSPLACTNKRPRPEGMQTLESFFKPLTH
Experiment: affinity purification with mass spectrometry; HEK293T transfected with 2xFlag-Polη; immunopurification from nuclear extracts; SDS-PAGE, silver staining, bands cut, LC-MS/MS

binding: binds
B1: O-GlcNAc transferase (OGT), endogenous (enzyme, UniProt O15294 1-1046)
chain: MASSVGNVADSTEPTKRMLSFQGLAELAHREYQAGDFEAAERHCMQLWRQEPDNTGVLLLLSSIHFQCRRLDRSAHFSTLAIKQNPLLAEAYSNLGNVYKERGQLQEAIEHYRHALRLKPDFIDGYINLAAALVAAGDMEGAVQAYVSALQYNPDLYCVRSDLGNLLKALGRLEEAKACYLKAIETQPNFAVAWSNLGCVFNAQGEIWLAIHHFEKAVTLDPNFLDAYINLGNVLKEARIFDRAVAAYLRALSLSPNHAVVHGNLACVYYEQGLIDLAIDTYRRAIELQPHFPDAYCNLANALKEKGSVAEAEDCYNTALRLCPTHADSLNNLANIKREQGNIEEAVRLYRKALEVFPEFAAAHSNLASVLQQQGKLQEALMHYKEAIRISPTFADAYSNMGNTLKEMQDVQGALQCYTRAIQINPAFADAHSNLASIHKDSGNIPEAIASYRTALKLKPDFPDAYCNLAHCLQIVCDWTDYDERMKKLVSIVADQLEKNRLPSVHPHHSMLYPLSHGFRKAIAERHGNLCLDKINVLHKPPYEHPKDLKLSDGRLRVGYVSSDFGNHPTSHLMQSIPGMHNPDKFEVFCYALSPDDGTNFRVKVMAEANHFIDLSQIPCNGKAADRIHQDGIHILVNMNGYTKGARNELFALRPAPIQAMWLGYPGTSGALFMDYIITDQETSPAEVAEQYSEKLAYMPHTFFIGDHANMFPHLKKKAVIDFKSNGHIYDNRIVLNGIDLKAFLDSLPDVKIVKMKCPDGGDNADSSNTALNMPVIPMNTIAEAVIEMINRGQIQITINGFSISNGLATTQINNKAATGEEVPRTIIVTTRSQYGLPEDAIVYCNFNQLYKIDPSTLQMWANILKRVPNSVLWLLRFPAVGEPNIQQYAQNMGLPQNRIIFSPVAPKEEHVRRGQLADVCLDTPLCNGHTTGMDVLWAGTPMVTMPGETLASRVAASQLTCLGCLELIAKNRQEYEDIAVKLGTDLEYLKKVRGKVWKQRISSPLFNTKQYTMELERLYLQMWEHYAAGNKPDHMIKPVEVTESA
